From US20090215081A1
Results are given in words; binding and its absence hold for the method and conditions named. Binding seen in cells or lysates may run through a third protein. Some binding calls cover weakened binding; strength is not graded here. Each block holds one substance with its values, some of them ahead of it.

By UniProt entry, the sequences of proteins in these tests, tags left out. Where a name states a change or a piece, a line headed by the entry shows the natural chain unless it says otherwise.
UniProt Q9UKE5: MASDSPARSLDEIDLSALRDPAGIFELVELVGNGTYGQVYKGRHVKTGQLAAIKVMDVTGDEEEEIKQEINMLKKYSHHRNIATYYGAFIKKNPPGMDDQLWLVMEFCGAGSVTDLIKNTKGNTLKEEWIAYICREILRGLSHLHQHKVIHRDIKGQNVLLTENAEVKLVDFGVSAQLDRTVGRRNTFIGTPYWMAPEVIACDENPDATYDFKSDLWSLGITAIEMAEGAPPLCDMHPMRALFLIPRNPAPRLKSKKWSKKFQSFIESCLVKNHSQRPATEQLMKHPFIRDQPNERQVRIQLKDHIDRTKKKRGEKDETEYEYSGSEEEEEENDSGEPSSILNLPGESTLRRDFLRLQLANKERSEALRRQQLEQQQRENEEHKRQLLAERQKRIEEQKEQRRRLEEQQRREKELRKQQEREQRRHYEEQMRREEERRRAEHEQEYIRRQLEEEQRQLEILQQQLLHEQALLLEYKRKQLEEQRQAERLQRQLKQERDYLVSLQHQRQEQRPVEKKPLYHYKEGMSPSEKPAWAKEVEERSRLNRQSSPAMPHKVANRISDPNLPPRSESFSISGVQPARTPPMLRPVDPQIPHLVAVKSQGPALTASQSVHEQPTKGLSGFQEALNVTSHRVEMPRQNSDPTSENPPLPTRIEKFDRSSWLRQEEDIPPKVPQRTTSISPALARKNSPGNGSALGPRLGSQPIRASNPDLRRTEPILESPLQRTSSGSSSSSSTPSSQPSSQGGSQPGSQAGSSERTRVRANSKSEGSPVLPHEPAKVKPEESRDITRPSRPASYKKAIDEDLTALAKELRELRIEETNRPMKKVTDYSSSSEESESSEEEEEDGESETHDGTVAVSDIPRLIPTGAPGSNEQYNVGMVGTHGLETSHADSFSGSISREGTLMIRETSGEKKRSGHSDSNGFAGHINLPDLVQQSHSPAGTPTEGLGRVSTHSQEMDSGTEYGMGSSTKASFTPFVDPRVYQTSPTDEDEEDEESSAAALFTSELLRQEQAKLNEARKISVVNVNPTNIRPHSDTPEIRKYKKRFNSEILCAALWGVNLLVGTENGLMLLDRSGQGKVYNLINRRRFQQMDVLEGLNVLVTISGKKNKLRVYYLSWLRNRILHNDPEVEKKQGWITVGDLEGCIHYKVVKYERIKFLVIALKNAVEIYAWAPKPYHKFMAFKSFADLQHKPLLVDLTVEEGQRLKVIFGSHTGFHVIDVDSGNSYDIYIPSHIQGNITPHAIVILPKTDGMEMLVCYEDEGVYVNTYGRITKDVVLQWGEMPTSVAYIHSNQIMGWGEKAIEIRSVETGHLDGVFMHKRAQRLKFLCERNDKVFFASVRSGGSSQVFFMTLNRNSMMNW
UniProt P35222: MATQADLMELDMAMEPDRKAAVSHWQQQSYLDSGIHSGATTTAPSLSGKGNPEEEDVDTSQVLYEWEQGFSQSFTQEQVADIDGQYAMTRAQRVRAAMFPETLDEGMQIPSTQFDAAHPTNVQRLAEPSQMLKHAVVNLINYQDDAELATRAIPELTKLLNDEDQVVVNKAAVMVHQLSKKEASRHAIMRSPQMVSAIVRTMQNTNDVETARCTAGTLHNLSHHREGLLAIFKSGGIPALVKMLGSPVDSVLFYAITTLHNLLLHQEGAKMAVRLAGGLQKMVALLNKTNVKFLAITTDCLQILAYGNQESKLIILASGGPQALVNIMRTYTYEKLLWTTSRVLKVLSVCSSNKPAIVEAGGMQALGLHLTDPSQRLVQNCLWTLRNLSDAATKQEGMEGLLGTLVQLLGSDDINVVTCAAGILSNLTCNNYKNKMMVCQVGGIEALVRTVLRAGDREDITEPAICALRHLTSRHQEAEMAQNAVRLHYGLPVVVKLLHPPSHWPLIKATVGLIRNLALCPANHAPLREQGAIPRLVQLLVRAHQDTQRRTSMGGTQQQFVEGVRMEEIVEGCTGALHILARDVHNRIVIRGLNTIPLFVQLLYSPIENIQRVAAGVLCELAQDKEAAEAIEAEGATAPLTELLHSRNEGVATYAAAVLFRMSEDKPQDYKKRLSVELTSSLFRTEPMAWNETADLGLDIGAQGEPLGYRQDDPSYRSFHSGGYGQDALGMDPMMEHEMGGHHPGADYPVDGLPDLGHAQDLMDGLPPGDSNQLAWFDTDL
UniProt Q9NQB0: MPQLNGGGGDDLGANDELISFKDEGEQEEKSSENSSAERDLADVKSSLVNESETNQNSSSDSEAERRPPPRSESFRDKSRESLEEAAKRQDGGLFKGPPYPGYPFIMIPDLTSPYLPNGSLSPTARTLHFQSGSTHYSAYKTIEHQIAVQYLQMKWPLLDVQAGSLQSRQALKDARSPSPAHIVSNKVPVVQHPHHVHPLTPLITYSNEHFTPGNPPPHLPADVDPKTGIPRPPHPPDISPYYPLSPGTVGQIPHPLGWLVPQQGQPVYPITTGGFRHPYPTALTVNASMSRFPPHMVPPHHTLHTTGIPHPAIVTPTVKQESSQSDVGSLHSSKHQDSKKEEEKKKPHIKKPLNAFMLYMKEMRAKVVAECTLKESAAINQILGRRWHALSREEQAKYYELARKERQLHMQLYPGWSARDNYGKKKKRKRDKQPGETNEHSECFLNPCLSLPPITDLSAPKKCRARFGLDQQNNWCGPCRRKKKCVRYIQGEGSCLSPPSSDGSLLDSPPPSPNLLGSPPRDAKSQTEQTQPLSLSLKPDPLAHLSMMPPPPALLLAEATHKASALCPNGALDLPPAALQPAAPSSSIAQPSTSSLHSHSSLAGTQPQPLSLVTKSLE

Experiments:
[1] = molecular target: TRAF2 and NCK interacting kinase (TNIK), endogenous, in extracts of DLD-1 and HCT-116 cells (human) (UniProt Q9UKE5); experiment: co-immunoprecipitation with anti-TNIK rabbit polyclonal antibody, immunoblot with anti-TCF4; DLD-1 and HCT-116 cell extracts
[2] = molecular target: β-catenin/TCF4 transcription complex (human) (UniProt P35222+Q9NQB0); experiment: co-immunoprecipitation and immunoblot, DLD-1 and HCT-116 cell extracts (figure legend)
[3] = molecular target: T-cell factor-4 (TCF4), endogenous, in extracts of DLD-1 and HCT-116 cells (human) (UniProt Q9NQB0); experiment: co-immunoprecipitation with anti-TCF4 monoclonal antibody, immunoblot with anti-TNIK; DLD-1 and HCT-116 cell extracts
[4] = molecular target: T-cell factor-4 (TCF4), endogenous, in extracts of DLD-1 and HCT-116 cells (human) (UniProt Q9NQB0); experiment: co-immunoprecipitation (anti-HA / anti-TCF4 monoclonal antibodies) and immunoblot; extracts of transfected DLD-1 and HCT-116 cells

binding [1]: binds
Substance: T-cell factor-4 (TCF4), endogenous, in extracts of DLD-1 and HCT-116 cells (from UniProt Q9NQB0 1-619)

binding [2]: binds
binding [3]: binds
Substance: TRAF2 and NCK interacting kinase (TNIK), endogenous, in extracts of DLD-1 and HCT-116 cells (from UniProt Q9UKE5 1-1360) (enzyme)

Substance: HA-TNIK, wild-type human TNIK full length expressed from pCIneo-HA-TNIK (from UniProt Q9UKE5 1-1360) (enzyme)
binding [4]: binds
